Drawing on PubChem BioAssay AID493014 (National Center for Advancing Translational Sciences (NCATS), 2011), this text covers AC50 for 63 compounds.

A short description of this test: qHTS Assay to Find Inhibitors of Chronic Active B-Cell Receptor Signaling. The note with it: ABC-DLBCL IkBa-CBG/CBR reporter, luminescence ratio (green luciferase fused to IkBa over red control in TMD8 lymphoma cells), 4 h. An outline of the steps:
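Cell line TMD8 (human ABC DLBCL), stably expressing tet-inducible CBG68-IkBa fusion and CBR; IMDM/0.5% FBS; cpd up to 46 uM; dox induction, 4 h, 37C/5% CO2; dual luminescence; green/red ratio; MG132 control.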

Where [1] appears, read: measured here: CBR red luminescence, cell number.
The mark [2] stands for this setting: measured here: IkBa-CBG green luminescence.

Some of the results follow. The main result of the screen is listed elsewhere. These columns were measured beside it and carry no call. The list favours compounds with an active or inconclusive main result. The note in brackets gives the kind of curve behind each potency; many fits are weak.

Turning to `O=C(OCCCCN1C(=O)c2ccccc2C1=O)c1n[nH]c2ccccc12`, the AC50 under setting [1] is 11.6 µM [falling, partial curve, poor fit]. `O=C(COC(=O)c1ccc(S(=O)(=O)N2CCCC2)cc1)Nc1cccc(Br)c1`: the AC50 under setting [1] is 0.731 µM [rising, full curve, poor fit]. On the same count and under the same terms, to `CCC(C(=O)OCC(=O)N1CCN(S(=O)(=O)c2ccc(C)cc2C)CC1)c1ccccc1` (stereo unspecified) belongs 18.4 µM [falling, single point].

As to `O=C(Nc1cc(S(=O)(=O)N2CCOCC2)ccc1O)c1ccc(S(=O)(=O)N2CCCCC2)cc1`, the AC50 under setting [1] is 16.4 µM [rising, partial curve, poor fit]. Same read-out and setting: as for `CCn1c(NCc2cc(Cl)ccc2O)nc2ccccc21`, the figure is 22.4 µM [falling, single point]. Regarding `COc1ccccc1C(=O)NC(=O)COC(=O)Cc1ccccc1[N+](=O)[O-]`, the AC50 under setting [1] was 5.8 µM [rising, full curve, poor fit]. As to `CC(=O)N1c2ccccc2C(=O)OC1c1cccnc1` (stereo unspecified), the AC50 under setting [1] was 5.62 µM [rising, single point].

As for `CNc1nc(Sc2ccc(C)cc2)cc(C(F)(F)F)n1`, the AC50 under setting [1] is 10 µM [rising, single point]. Still for that read-out and setting: to `CN(C)CCCNc1oc(-c2ccccc2Cl)nc1S(=O)(=O)c1ccc(F)cc1` belongs 12.6 µM [falling, single point]. For the compound `CCN1CCN(c2nnc(-c3ccc(C)cc3)c3ccccc23)CC1`, the AC50 under setting [1] is 35.5 µM [falling, single point]. Same read-out and setting: as for `CCOc1cc(C(=O)NCc2ccc3c(c2)CCN3C(=O)c2ccc(F)cc2)cc(OCC)c1OCC`, the figure is 0.631 µM [rising, full curve, poor fit]; as for `Nc1ccc(C(=O)C(=O)c2ccc(N)cc2)cc1`, 12.6 µM [falling, partial curve, poor fit]; as for `COc1ccc(OC)c(N/C(=N\c2nc(C)cc(C)n2)NC(=O)c2ccco2)c1`, 29.1 µM [falling, single point].

As for `O=C(O)CSc1ncnc2c1sc1nc(-c3ccccc3)c3c(c12)CCC3`, the AC50 under setting [1] was 0.562 µM [falling, full curve]. For the compound `Nc1c(C(=O)NCCN2CCOCC2)c2nc3ccccc3nc2n1CCc1ccccc1F`, the AC50 under setting [1] is 0.103 µM [rising, full curve, poor fit].

For the compound `c1csc(Cc2nn3c(-c4n[nH]c5c4CCC5)nnc3s2)c1`, the AC50 under setting [1] is 3.66 µM [rising, full curve]. With `N#C/C(=C\c1ccc(F)c(F)c1)C(=O)NC1CCCCC1`, the AC50 under setting [1] is 3.26 µM [falling, full curve]. On the same count and under the same terms, to `COC(=O)C1=C(C)N(Cc2ccccc2)C(=NCCN2CCOCC2)N[C@H]1CCc1ccccc1` belongs 20.6 µM [falling, single point]. On to `OCCN(CCO)c1ccc(C(c2ccccc2Cl)c2ccc(N(CCO)CCO)cc2Cl)c(Cl)c1`, for which the AC50 is 29.1 µM [falling, single point] under setting [1] and 16.4 µM [rising, partial curve, poor fit] under setting [2]. Consider `COc1ccc(-c2cc(CCC(=O)N3CCN(c4cc(C)ccc4C)CC3)on2)cc1`, for which, under setting [1], the AC50 was 29.1 µM [falling, single point].

On to `COCCCNC(=O)Cc1c(C)c2cc3c(cc2oc1=O)OC(C)(C)CC3`, for which the AC50 under setting [1] is 1.26 µM [falling, partial curve]. For `COc1ccc2c(c1OC)C(=O)N(c1ccc(F)cc1)C2`, the AC50 under setting [1] was 2.82 µM [rising, partial curve, poor fit]. On the same count and under the same terms, as for `O=c1c(Cl)c(NCc2ccc(F)cc2)cnn1C12CC3CC(CC(C3)C1)C2`, the figure is 2.31 µM [rising, full curve]; as for `COc1cc(CNC(=O)C2CCCN2S(=O)(=O)c2ccccc2)cc(OC)c1OC` (stereo unspecified), 11.2 µM [rising, partial curve, poor fit]; as for `COC(=O)/C=C1/S/C(=N/NC(=O)c2ccccc2)NC1=O`, 0.316 µM [falling, full curve, poor fit]. Same read-out and setting: to `O=C(N/N=C/c1cccc(O)c1)c1ccc(COc2ccc3c(c2)CCC3)o1` belongs 20.6 µM [falling, partial curve, poor fit].

`COc1cccc(CC2(CO)CCCN(Cc3[nH]c4ccc(C)cc4c3C)C2)c1` (stereo unspecified): the AC50 under setting [1] was 35.5 µM [falling, single point]. Take `c1ccc(CN2CCN(c3nc4ccccc4n4cnnc34)CC2)cc1`: under setting [1], the AC50 is 6.31 µM [rising, single point]. On the same count and under the same terms, as for `Cc1ccc2[nH]c(=O)c3cc(C(=O)NCCC(C)C)sc3c2c1`, the figure is 12.6 µM [rising, partial curve, poor fit]; as for `COCC(=O)N1CCN(c2cccc(Cl)c2)CC1`, 0.631 µM [rising, full curve, poor fit]; as for `CCC(C)N1CC(O)=C(c2nc3ccccc3[nH]2)C1=N` (stereo unspecified), 20 µM [rising, partial curve, poor fit]. Still for that read-out and setting: as for `NS(=O)(=O)c1ccc(N2N=C(c3ccccc3)CC2c2cccc(Cl)c2)cc1` (stereo unspecified), the figure is 29.1 µM [rising, single point].

For the compound `CCC(CC)Nc1ccc(C(CC(N)=O)NC(=O)c2ccccc2)cc1[N+](=O)[O-]` (stereo unspecified), the AC50 under setting [1] was 14.1 µM [rising, partial curve]. The same measure, in the same setting: as for `O=C(NCc1cccnc1)C(=O)NCC1OCCN1S(=O)(=O)c1cc(F)ccc1F` (stereo unspecified), the figure is 5.62 µM [rising, single point]; as for `CC1=CC(=O)N(c2cccc(C(F)(F)F)c2)C1c1ccc(Cl)cc1` (stereo unspecified), 39.8 µM [falling, partial curve, poor fit]; as for `CC1=Nc2ccccc2/C1=C/c1c(N)n2c(S(=O)(=O)C(C)C)nsc2nc1=O`, 5.01 µM [falling, partial curve]. Same read-out and setting: as for `COCc1[nH]nc2c1C(c1cc(OC)c(O)c(OC)c1)C(C#N)=C(N)O2` (stereo unspecified), the figure is 11.2 µM [falling, partial curve]. Still for that read-out and setting: as for `Cn1c(SCC(=O)c2ccccc2)nnc1-c1cnccn1`, the figure is 22.4 µM [falling, single point].

With `Cc1cc(C)cc(NC(=S)/N=C(\N)Nc2nc(C)c3ccccc3n2)c1`, the AC50 under setting [1] was 25.9 µM [falling, partial curve, poor fit].

Turning to `Cc1nc2c(-c3ccc(F)cc3)cnn2c2c1CCC2`, the AC50 under setting [1] is 2.24 µM [rising, full curve]. The same measure, in the same setting: as for `Cc1ccc(/C=C2\CCC(C3CCCC3)C2=O)cc1` (stereo unspecified), the figure is 11.6 µM [rising, partial curve]; as for `O=C(O)C1Cc2ccccc2CN1S(=O)(=O)c1ccccc1` (stereo unspecified), 11.2 µM [falling, partial curve, poor fit]. Same read-out and setting: as for `CCOC(=O)CSc1cc(C)nc(N)n1`, the figure is 0.731 µM [falling, partial curve, poor fit]. With `COc1ccc(OC)c2sc(NC(=O)C3=COCCO3)nc12`, under setting [2], the AC50 is 0.282 µM [rising, full curve, poor fit]. For the compound `CS(=O)(=O)O/N=C1\CCCCC1c1ccc([N+](=O)[O-])cc1[N+](=O)[O-]` (stereo unspecified), under setting [1], the AC50 is 15.8 µM [rising, single point]. On the same count and under the same terms, as for `CCCCNC(=O)CSc1nnc(-c2c[nH]c3ccccc23)n1CC1CCCO1` (stereo unspecified), the figure is 9.2 µM [rising, partial curve, poor fit]. `CCOc1cc(/C=C(/NC(C)=O)C(=O)O)cc(Cl)c1OCc1cccc(Br)c1`: the AC50 by setting is: under setting [1], 35.5 µM [falling, single point]; under setting [2], 15.8 µM [rising, partial curve, poor fit]. Consider `CCOC(=O)CN1C=C(c2ccc3ccccc3n2)C(C[N+](=O)[O-])c2ccccc21` (stereo unspecified), for which, under setting [1], the AC50 was 1.46 µM [rising, partial curve]. For `CCOC(=O)COc1c(OC)cc(Cl)cc1C1Nc2ccccc2C(=O)N1c1cccc(C)c1` (stereo unspecified), the AC50 under setting [1] was 11.2 µM [falling, single point]. For the compound `C=CCn1c(SCC(=O)Nc2ccc(Cl)cn2)nnc1C1CC1`, the AC50 under setting [1] is 25.1 µM [falling, partial curve, poor fit].

Regarding `CCOC(=O)c1c(C)n(C)c2ccc(OC(=O)c3ccc([N+](=O)[O-])cc3)cc12`, under setting [1], the AC50 was 0.461 µM [rising, full curve]. For the compound `Brc1cccc(CNCc2cccs2)c1`, the AC50 under setting [1] is 11.6 µM [rising, partial curve, poor fit]. The same measure, in the same setting: as for `COc1ccc(OCCC(=O)OCC(=O)Nc2ccc(Br)cc2)cc1`, the figure is 8.2 µM [falling, partial curve, poor fit]. For the compound `CC(=O)NC(c1cc(F)c2cccnc2c1O)C1CC1` (stereo unspecified), the AC50 was 29.1 µM [rising, single point] under setting [1] and 29.1 µM [falling, single point] under setting [2]. For the compound `COc1ccc(-c2nc(C)c(C(C)=O)n2O)cc1[N+](=O)[O-]`, the AC50 under setting [1] was 17.8 µM [falling, partial curve]. On the same count and under the same terms, as for `COc1ccc2c(c1)OC[C@H]1[C@H]2N2C(=O)c3cc(Br)ccc3NC(=O)[C@@]2(C)[C@H]1c1ccccc1`, the figure is 3.66 µM [falling, full curve]; as for `COc1ccc(C)cc1NC(=O)CSc1nnc(-c2ccccn2)n1Cc1ccco1`, 35.5 µM [falling, single point]. Same read-out and setting: to `Nc1ccccc1Nc1nc2ccccc2[nH]1` belongs 11.2 µM [falling, partial curve]; to `O=C(CC1COc2ccccc2O1)Nc1ccccn1` (stereo unspecified), 16.4 µM [falling, single point].

`Cc1cc(Nc2ccccc2)nc(-c2ccccc2O)n1`: the AC50 under setting [1] was 23.1 µM [falling, partial curve, poor fit]. With `O=C(N=Nc1c(O)[nH]c2ccc(F)cc12)C1COc2ccccc2O1` (stereo unspecified), the AC50 under setting [1] is 17.8 µM [falling, single point].

With `Cc1ccc(OCC(=O)NNC(=O)Cc2ccc(S(=O)(=O)N3CCOCC3)s2)cc1`, under setting [1], the AC50 was 8.2 µM [rising, partial curve]. Same read-out and setting: as for `CCc1ccc(NCCC(=O)c2ccc(Br)cc2)cc1`, the figure is 10 µM [rising, partial curve, poor fit].

By AC50 is commonly meant the concentration at which the activity in the assay is half-maximal.
